Measured values from paper PMC5471034.
No constants are given. Whether binding was seen depends on the method and setting. Binding seen in cells or lysates may run through a third protein. Some binding calls cover weakened binding; strength is not graded here.

Protein sequences, listed by entry. Tags and fused reporters are not part of them.
UniProt P78527: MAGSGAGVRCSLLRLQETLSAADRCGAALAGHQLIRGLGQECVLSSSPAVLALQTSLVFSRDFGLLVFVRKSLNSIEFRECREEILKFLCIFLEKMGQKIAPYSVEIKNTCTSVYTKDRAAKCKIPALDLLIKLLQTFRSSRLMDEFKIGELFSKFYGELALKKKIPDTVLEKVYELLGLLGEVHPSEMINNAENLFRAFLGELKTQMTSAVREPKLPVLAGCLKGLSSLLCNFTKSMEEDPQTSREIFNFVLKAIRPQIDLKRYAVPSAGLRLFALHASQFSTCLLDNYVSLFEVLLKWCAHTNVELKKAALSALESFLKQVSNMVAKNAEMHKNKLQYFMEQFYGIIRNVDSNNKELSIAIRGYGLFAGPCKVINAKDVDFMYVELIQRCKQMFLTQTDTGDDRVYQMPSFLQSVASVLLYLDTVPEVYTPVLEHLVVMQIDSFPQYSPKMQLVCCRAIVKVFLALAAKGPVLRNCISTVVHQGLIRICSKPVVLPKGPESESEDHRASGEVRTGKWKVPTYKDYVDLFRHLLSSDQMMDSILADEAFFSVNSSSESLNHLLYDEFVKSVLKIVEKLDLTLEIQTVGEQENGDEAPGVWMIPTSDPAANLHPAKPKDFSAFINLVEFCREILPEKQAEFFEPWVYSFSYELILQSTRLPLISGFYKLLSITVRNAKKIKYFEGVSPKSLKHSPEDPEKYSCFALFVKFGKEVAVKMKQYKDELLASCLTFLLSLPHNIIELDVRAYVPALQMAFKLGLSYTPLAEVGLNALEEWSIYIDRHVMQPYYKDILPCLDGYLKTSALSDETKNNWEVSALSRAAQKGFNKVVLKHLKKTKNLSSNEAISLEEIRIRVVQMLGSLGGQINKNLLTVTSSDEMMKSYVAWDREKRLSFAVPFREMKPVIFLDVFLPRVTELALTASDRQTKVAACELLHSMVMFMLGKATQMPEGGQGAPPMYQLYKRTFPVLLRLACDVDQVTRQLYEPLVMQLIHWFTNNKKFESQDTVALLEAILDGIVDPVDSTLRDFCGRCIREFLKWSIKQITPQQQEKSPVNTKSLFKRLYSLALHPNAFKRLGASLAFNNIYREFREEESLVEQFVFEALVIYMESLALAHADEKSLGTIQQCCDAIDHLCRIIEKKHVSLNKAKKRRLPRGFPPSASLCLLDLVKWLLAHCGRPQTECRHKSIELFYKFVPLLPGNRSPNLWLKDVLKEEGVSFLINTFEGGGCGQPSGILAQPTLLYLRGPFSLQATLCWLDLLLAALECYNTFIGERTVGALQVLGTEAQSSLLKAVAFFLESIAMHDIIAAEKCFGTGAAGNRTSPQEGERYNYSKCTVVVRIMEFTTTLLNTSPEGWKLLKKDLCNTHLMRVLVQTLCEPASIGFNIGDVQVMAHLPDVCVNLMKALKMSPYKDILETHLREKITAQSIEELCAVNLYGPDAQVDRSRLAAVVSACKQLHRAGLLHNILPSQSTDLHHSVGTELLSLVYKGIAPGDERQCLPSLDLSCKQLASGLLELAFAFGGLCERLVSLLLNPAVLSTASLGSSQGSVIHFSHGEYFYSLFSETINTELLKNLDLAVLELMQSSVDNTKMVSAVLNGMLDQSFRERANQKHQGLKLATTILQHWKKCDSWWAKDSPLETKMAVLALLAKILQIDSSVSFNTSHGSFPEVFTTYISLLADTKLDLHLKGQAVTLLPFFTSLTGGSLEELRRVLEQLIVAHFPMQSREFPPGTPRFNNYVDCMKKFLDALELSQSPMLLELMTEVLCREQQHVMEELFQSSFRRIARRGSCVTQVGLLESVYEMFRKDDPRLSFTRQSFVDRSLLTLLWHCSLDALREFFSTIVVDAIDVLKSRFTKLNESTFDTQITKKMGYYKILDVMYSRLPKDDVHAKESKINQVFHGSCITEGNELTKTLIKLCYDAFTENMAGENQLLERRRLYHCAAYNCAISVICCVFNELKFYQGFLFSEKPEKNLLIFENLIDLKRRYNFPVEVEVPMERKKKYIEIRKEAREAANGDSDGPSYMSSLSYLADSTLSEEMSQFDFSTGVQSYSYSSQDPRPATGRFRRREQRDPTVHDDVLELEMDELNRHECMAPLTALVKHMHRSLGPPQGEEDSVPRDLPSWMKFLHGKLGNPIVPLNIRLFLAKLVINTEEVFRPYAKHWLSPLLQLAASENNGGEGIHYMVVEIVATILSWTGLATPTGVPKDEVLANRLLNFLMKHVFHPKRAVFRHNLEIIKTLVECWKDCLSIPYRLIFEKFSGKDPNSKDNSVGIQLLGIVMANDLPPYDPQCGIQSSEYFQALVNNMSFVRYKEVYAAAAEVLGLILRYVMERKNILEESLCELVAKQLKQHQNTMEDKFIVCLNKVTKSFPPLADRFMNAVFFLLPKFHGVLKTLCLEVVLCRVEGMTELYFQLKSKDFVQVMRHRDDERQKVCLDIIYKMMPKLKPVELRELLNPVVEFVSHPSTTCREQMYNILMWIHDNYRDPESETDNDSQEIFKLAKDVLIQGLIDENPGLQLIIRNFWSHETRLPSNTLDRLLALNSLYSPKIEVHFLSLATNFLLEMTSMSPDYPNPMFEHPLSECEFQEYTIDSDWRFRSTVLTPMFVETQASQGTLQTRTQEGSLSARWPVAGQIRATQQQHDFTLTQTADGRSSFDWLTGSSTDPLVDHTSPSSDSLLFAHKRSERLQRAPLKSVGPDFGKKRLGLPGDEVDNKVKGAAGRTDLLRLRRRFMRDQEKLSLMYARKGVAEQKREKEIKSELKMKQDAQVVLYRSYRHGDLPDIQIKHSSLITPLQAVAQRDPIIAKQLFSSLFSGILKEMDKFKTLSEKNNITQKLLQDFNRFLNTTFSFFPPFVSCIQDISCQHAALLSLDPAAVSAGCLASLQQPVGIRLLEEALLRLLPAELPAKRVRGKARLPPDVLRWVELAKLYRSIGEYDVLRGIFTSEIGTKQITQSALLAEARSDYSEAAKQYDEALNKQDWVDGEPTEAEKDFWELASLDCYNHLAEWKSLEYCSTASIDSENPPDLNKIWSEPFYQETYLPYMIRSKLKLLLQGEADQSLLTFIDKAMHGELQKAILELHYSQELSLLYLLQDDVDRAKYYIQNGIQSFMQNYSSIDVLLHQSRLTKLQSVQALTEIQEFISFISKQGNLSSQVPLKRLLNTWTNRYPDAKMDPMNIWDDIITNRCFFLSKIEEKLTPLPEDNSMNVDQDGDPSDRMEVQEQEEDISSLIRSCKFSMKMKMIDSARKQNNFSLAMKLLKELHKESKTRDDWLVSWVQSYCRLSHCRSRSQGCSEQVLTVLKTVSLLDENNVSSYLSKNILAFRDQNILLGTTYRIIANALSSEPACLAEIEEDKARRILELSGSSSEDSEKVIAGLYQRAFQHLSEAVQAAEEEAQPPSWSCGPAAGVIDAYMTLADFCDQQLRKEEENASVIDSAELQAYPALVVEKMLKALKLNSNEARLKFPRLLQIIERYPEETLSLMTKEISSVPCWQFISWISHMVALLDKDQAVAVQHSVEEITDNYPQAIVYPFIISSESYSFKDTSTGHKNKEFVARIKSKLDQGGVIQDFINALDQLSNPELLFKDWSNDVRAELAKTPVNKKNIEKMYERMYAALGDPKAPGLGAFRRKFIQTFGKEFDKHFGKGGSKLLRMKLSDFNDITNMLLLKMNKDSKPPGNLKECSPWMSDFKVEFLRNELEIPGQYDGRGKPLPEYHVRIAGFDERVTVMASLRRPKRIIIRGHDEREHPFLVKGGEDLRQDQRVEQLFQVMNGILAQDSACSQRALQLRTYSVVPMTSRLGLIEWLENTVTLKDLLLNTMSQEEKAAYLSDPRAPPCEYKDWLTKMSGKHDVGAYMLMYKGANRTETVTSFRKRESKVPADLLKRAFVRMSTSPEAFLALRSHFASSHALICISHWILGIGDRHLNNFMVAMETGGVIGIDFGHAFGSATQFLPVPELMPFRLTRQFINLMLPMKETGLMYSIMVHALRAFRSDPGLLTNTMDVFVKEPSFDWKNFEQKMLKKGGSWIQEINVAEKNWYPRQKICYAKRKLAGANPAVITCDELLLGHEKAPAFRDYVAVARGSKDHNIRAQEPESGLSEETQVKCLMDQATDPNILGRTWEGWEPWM
UniProt P08754: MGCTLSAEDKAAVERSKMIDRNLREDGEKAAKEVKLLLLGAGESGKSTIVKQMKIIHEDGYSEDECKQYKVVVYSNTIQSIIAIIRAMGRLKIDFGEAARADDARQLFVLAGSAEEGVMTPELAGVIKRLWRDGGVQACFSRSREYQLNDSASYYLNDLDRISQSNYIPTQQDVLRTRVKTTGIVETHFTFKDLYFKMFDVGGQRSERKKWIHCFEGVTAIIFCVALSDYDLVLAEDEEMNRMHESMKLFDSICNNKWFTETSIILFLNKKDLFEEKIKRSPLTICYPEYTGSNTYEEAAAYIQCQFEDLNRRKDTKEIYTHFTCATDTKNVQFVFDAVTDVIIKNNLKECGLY

Biological target: DNA-dependent protein kinase catalytic subunit (DNA-PKcs) (human (endogenous in A172)) (UniProt P78527)
Test: co-IP; 500 μg nuclei-localized protein lysates of A172 cells (irradiated 5 Gy, 2 and 4 hours, or mock), pre-cleared with protein A/G beads; anti-DNA-PKcs antibody overnight, protein A/G beads 2 hours at 4°C; Gαi3 detected by Western blotting

For “Gαi3 (G protein α inhibitory subunit 3) (from UniProt P08754 1-354)”, the binding was “binds”.
